This assay concerns the target vimentin (mouse (endogenous in tracheal rings)) (UniProt P20152). In words: co-sedimentation; intermediate filament fractionation: mouse tracheal rings (untreated, okadaic acid 10^-6 M, or control/PP1 shRNA with ACh) homogenised in 1 % Nonidet P-40, 10 % glycerol, 20 mM Hepes pH 7.6, 150 mM NaCl, 37 °C 30 min; insoluble (cytoskeletal) fraction collected at 5,200 rpm, 4 °C, 30 min; equal amounts of cytoskeletal vimentin blotted for p130CAS and vimentin.

Amino acid sequences for entries named in this document (tags omitted).
UniProt P20152: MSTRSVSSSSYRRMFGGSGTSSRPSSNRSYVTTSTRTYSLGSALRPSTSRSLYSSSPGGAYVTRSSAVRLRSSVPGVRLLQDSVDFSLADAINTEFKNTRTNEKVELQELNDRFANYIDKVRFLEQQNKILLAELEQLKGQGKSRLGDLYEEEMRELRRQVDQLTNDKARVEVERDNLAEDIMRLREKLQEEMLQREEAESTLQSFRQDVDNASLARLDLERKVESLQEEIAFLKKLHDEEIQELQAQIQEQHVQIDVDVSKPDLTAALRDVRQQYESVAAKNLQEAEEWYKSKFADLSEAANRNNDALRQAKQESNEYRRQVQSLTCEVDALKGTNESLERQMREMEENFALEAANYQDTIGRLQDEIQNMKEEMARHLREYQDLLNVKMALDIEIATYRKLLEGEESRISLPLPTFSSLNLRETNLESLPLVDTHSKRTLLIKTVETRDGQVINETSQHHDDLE

No constants are given. Whether binding was seen depends on the method and setting. Binding seen in cells or lysates may run through a third protein. Some results given as binding are weak or reduced against the parent protein; the word gives no strength.

B1: p130 Crk-associated substrate (protein, UniProt Q61140 1-874)
chain: MTVPNVLAKALYDNVAESPDELSFRKGDIMTVLERDTQGLDGWWLCSLHGRQGIVPGNRLKILVGMYDKKPVGPGPGPPATPPQPQPSLPQGVHAPVPPASQYSPMLPTAYQPQSDNVYLVPTPSKTQQGLYQAPGPNPQFQSPPAKQTSTFSKQTPHHSFPSPATDLYQVPPGPGSPAQDIYQVPPSAGIGHDIYQVPPSLDTRGWEGTKPPAKVVVPTRVGQGYVYEAAQTEQDEYDTPRHLLAPGPQDIYDVPPVRGLLPNQYGQEVYDTPPMAVKGPNGRDPLLDVYDVPPSVEKGLLSSSHHSVYDVPPSVSKDVPDGPLLREETYDVPPAFAKPKPFDPTRHPLILAAPPPDSPAAEDVYDVPPPAPDLYDVPPGLRRPGPGTLYDVPRERVLPPEVADGSVVDDGVYAVPPPAEREAPTDGKRLSASSTGSTRSSQSASSLEVVVPGREPLELEVAVESLARLQQGVSTTVAHLLDLVGSASGPGGWRGTSEPQEPPAQDLKAAVAAVHGAVHELLEFARGAVSNATHTSDRTLHAKLSRQLQKMEDVYQTLVVHGQVLDSGRGSPGFTPEDLDRLVACSRAVPEDAKQLASFLHGNASLLFRRTKAPGPGPEGSSSLHPNPTDKASSIQSRPLPSPPKFTSQDSPDGQYENSEGGWMEDYDYVHLQGKEEFEKTQKELLERGNIMRQGKGQLELQQLKQFERLEQEVSRPIDHDLANWTPAQPLVPGRTGGLGPSDRQLLLFYLEQCEANLTTLTDAVDAFFTAVATNQPPKIFVAHSKFVILSAHKLVFIGDTLSRQAKAADVRSQVTHYSNLLCDLLRGIVATTKAAALQYPSPSAAQDMVDRVKELGHSTQQFRRVLGQLAAA
B1: the binding result was “binds”.

The record behind these values is article PMC4960799.
